According to patent US20260265331A1, “GLYCOSYLATED NEUROPEPTIDE DERIVATIVE INCLUDING NEUROPEPTIDE SEQUENCE AND SUGAR CHAIN, PHARMACEUTICAL COMPOSITION, INTRANASAL/NASAL DROP FORMULATION, AND USE OF GLYCOSYLATED NEUROPEPTIDE DERIVATIVE” (TOKYO UNIVERSITY OF SCIENCE FOUNDATION, priority 2022, published 2026):
At least one peptide structure holds a part that was inferred or is arguable (an end, a ring closure or a residue). Where no end group is shown, it is not given here.

System: male ddY mouse
Assay: Forced swim test (FST) after intranasal administration
Conditions: Reference Example; 0.6 nmol/mouse intranasal in 16% DMSO, 20 min before test session; FIG. 16

| Molecule | immobility time compared with control group |
| --- | --- |
| FFLIPKGRRRRRRRRGGHADGSFSDEMNTILDNLAARDFINWLIQTKITD [PAS-CPP-GLP-2] | a significant decrease in immobility time |
| CC[C@H](C)[C@H](NC(=O)[C@H](Cc1ccccc1)NC(=O)[C@H](CC(=O)O)NC(=O)[C@H](CCCNC(=N)N)NC(=O)[C@H](C)NC(=O)[C@H](C)NC(=O)[C@H](CC(C)C)NC(=O)[C@H](CC(N)=O)NC(=O)[C@H](CC(=O)O)NC(=O)[C@H](CC(C)C)NC(=O)[C@@H](NC(=O)[C@@H](NC(=O)[C@H](CC(N)=O)NC(=O)[C@H](CCSC)NC(=O)[C@H](CCC(=O)O)NC(=O)[C@H](CC(=O)O)NC(=O)[C@H](CO)NC(=O)[C@H](Cc1ccccc1)NC(=O)[C@H](CO)NC(=O)CNC(=O)[C@H](CC(=O)O)NC(=O)[C@H](C)NC(=O)[C@H](Cc1c[nH]cn1)NC(=O)CNC(=O)CNC(=O)CNC(=O)[C@H](CCCCN)NC(=O)[C@@H]1CCCN1C(=O)[C@@H](NC(=O)[C@H](CC(C)C)NC(=O)[C@H](Cc1ccccc1)NC(=O)[C@@H](N)Cc1ccccc1)[C@@H](C)CC)[C@@H](C)O)[C@@H](C)CC)C(=O)N[C@@H](CC(N)=O)C(=O)N[C@@H](Cc1c[nH]c2ccccc12)C(=O)N[C@@H](CC(C)C)C(=O)N[C@H](C(=O)N[C@@H](CCC(N)=O)C(=O)N[C@H](C(=O)N[C@@H](CCCCN)C(=O)N[C@H](C(=O)N[C@H](C(=O)N[C@@H](CC(=O)O)C(=O)O)[C@@H](C)O)[C@@H](C)CC)[C@@H](C)O)[C@@H](C)CC [PAS-GLP-2] | did not show a significant decrease in immobility time |
| CC[C@H](C)[C@H](NC(=O)[C@H](Cc1ccccc1)NC(=O)[C@H](CC(=O)O)NC(=O)[C@H](CCCNC(=N)N)NC(=O)[C@H](C)NC(=O)[C@H](C)NC(=O)[C@H](CC(C)C)NC(=O)[C@H](CC(N)=O)NC(=O)[C@H](CC(=O)O)NC(=O)[C@H](CC(C)C)NC(=O)[C@@H](NC(=O)[C@@H](NC(=O)[C@H](CC(N)=O)NC(=O)[C@H](CCSC)NC(=O)[C@H](CCC(=O)O)NC(=O)[C@H](CC(=O)O)NC(=O)[C@H](CO)NC(=O)[C@H](Cc1ccccc1)NC(=O)[C@H](CO)NC(=O)CNC(=O)[C@H](CC(=O)O)NC(=O)[C@H](C)NC(=O)[C@H](Cc1c[nH]cn1)NC(=O)CNC(=O)CNC(=O)[C@H](CCCNC(=N)N)NC(=O)[C@H](CCCNC(=N)N)NC(=O)[C@H](CCCNC(=N)N)NC(=O)[C@H](CCCNC(=N)N)NC(=O)[C@H](CCCNC(=N)N)NC(=O)[C@H](CCCNC(=N)N)NC(=O)[C@H](CCCNC(=N)N)NC(=O)[C@@H](N)CCCNC(=N)N)[C@@H](C)O)[C@@H](C)CC)C(=O)N[C@@H](CC(N)=O)C(=O)N[C@@H](Cc1c[nH]c2ccccc12)C(=O)N[C@@H](CC(C)C)C(=O)N[C@H](C(=O)N[C@@H](CCC(N)=O)C(=O)N[C@H](C(=O)N[C@@H](CCCCN)C(=O)N[C@H](C(=O)N[C@H](C(=O)N[C@@H](CC(=O)O)C(=O)O)[C@@H](C)O)[C@@H](C)CC)[C@@H](C)O)[C@@H](C)CC [CPP-GLP-2] | did not show a significant decrease in immobility time |
